In patent US20220195043A1:
Residue numbers refer to the chain shown, from its start. Results are given in words; binding and its absence hold for the method and conditions named. Some entries that bind do so weakly or less than the wild type. Values belong to the binder of their own block, whether it stands above or below them.

By UniProt entry, the sequences of proteins in these tests, tags left out. Where a name states a change or a piece, a line headed by the entry shows the natural chain unless it says otherwise. Residues count along the entry.
UniProt Q95LI5: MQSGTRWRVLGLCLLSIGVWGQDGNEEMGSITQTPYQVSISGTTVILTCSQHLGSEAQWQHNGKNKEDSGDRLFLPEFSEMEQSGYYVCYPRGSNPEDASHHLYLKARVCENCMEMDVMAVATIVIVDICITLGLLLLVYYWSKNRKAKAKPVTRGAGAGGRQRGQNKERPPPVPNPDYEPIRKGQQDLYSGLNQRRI
UniProt P07766, residues 23-207: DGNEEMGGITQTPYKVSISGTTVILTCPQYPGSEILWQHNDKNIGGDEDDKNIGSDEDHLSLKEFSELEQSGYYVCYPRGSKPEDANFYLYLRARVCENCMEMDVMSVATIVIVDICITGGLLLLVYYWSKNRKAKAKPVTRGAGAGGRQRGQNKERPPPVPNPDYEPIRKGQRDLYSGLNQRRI

Columns and labels:
[1] = biological target: monkey CD3ε-his (Cat #: 90047-C08H, SinoBiological, China) (monkey) (UniProt Q95LI5); test: ELISA, plate coated with monkey CD3ε-his
[2] = biological target: monkey CD3ε-his (Cat #: 90047-C08H, SinoBiological, China) (monkey) (UniProt Q95LI5); test: SPR (BIAcore 8K); monkey CD3ε-his coupled to CM5 chip
[3] = biological target: monkey CD3ε-his (Cat #: 90047-C08H, SinoBiological, China) (monkey) (UniProt Q95LI5); test: ELISA: plate coated with monkey CD3ε-his, antibody titrated, HRP goat anti-human IgG, OD 450
[4] = biological target: human TCR/CD3 complex on cell surfaces (primary human CD4+ T cells; Jurkat cells; human PBMCs) (human) (UniProt P07766); test: FACS on primary human T cells, PE goat anti-human IgG, MFI
[5] = biological target: human TCR/CD3 complex on cell surfaces (primary human CD4+ T cells; Jurkat cells; human PBMCs) (human) (UniProt P07766); test: FACS on primary human T cells
[6] = biological target: human TCR/CD3 complex on cell surfaces (primary human CD4+ T cells; Jurkat cells; human PBMCs) (human) (UniProt P07766); test: FACS on human T cells

B1: chimeric antibody 19-26 (full length, human IgG1) (antibody, V domains shown)
VH: EVKLLESGGGLVQPKGSLKLSCAASGFTFNTYAMNWVRQAPGKGLEWVARIRSKYNNYATYYADSVKDRFTISRDDSQSILYLQMNNLKTEDTAMYYCVRHGNFGNSYISWWAYWGQGTLVTVSA
VL: QAVVTQESALTTSPGETVTLTCKSSTGAVTTSNYANWVQEKPDHLFTGLIGGTNLHAPGVPARFSGSLIGDKAALTITGAQTEDEAIYFCALWYSNLWVFGGGTKLTVLG
binding [1]: binds
binding [2]: binds
binding [3]: binds
binding [4]: binds
binding [5]: binds

B2: chimeric antibody 19-15 (full length, human IgG1) (antibody, V domains shown)
VH: B1 VH with D64I, I109L, W111Y
VL: B1 VL with K23Q, S32N, N54K, L55Q, H56R, A91V
binding [4]: binds
binding [5]: binds

Now from value to binder:

binding [6]: binds
binding [1]: binds
binding [2]: binds
binding [3]: binds
binding [4]: binds
B3: humanized anti-CD3 antibody 26H3L3 (human IgG1) (antibody, V domains shown)
VH: B1 VH with K3Q, K15G, K19R, Q78K, S79N, I80T, N87S, K89R, T90A, A125S
VL: QAVVTQEPSLTVSPGGTVTLTCKSSTGAVTTSNYANWVQQKPGHAFRGLIGGTNLHAPGVPARFSGSLLGGKAALTLSGVQPEDEAEYYCALWYSNLWVFGGGTKLTVLG

binding [6]: binds
binding [1]: binds
binding [2]: binds
binding [3]: binds
binding [4]: binds
B4: humanized anti-CD3 antibody 26H2L3 (human IgG1) (antibody, V domains shown)
VH: EVQLLESGGGLVQPGGSLRLSCAASGFTFNTYAMNWVRQAPGKGLEWVARIRSKYNNYATYYADSVKDRFTISRDNSKNTLYLQMNSLRAEDTAVYYCVKHGNFGNSYISWWAYWGQGTLVTVSS
VL: B3 VL
